# From article doi:10.1101/2025.05.20.655051
# These are yes or no findings as the source states them, for the method shown. Some binding calls cover weakened binding; strength is not graded here. Tags and fused reporters may be left off the sequences shown.
# B1: VIPP1-His (VIPP1 C-terminally tagged by 6xHis) (protein, UniProt O80796 65-330)
# chain: CNGHGATMNLFERFSRVVKSYANALISSFEDPEKILEQTVIEMNSDLTKMRQATAQVLASQKQLQNKYKAAQQSSDDWYKRAQLALAKGDEDLAREALKRRKSFADNATALKTQLDQQKGVVDNLVSNTRLLESKIQEAKAKKDTLLARARTAKTATKVQEMIGTVNTSGALSAFEKMEEKVMAMESEADALTQIGTDELEGKFQMLETSSVDDDLADLKKELSGSSKKGELPPGRSTVAASTRYPFKDSEIENELNELRRKANDF
# Molecular target: VIPP1-His (VIPP1 C-terminally tagged by 6xHis) (Arabidopsis thaliana) (UniProt O80796)
# Test: native gel or EMSA
binder,measurement,value
B1,binding,binds
